Assay results taken from patent US10758501B2, “Use of histone acetyltransferase inhibitor amidoximes as anti-proliferative agents” (Texas Woman's University, priority 2017, dated 2020).
Several values for one entry are separate records, joined by “and”; a condition that tells them apart may be missing. Equal entries are not always repeated. The name of at least one read-out is uncertain.

Key:
[1] = test system: HCT-116 (colorectal carcinoma); test: MTS growth inhibition assay, HCT-116; format: cell-based, human; conditions: 48 hours, individually or in combination, read-out: Growth Inhibition (GI50), HCT-116, bisamidoxime combination study
Experimental: In Table 1, the various compounds listed were tested for induction of death in various malignant human cell lines and were compared to the commercial HAT inhibitor garcinol (0.2-500 μM). Specifically, Table 1 describes the summary of the growth inhibitory effect (in μM) of nine novel bisamidoximes on six malignant cell lines, as measured by MTS assay. MTS assay is a colorimetric based cytotoxicity assay that determines the number of viable cells. The numbers in the table represent Growth Inhibition GI50 (±standard deviation), which is the concentration of the drug where 50% of the cells are killed. Garcinol, a known HAT inhibitor, was used as a positive control. The cell lines used were: HCT-116 (colorectal carcinoma), DU-145 (prostate carcinoma), SK-OV-3 (ovarian adenocarcinoma), HLF-a (lung epidermoid carcinoma), MCF-7 & MDA-MB-231 (breast adenocarcinoma) and NHDF (normal human dermal fibroblasts). The cells were treated with compounds JJMB 1-9 for 48 hrs (MCF-7 for 72 hrs) at various concentrations ranging from 0.2 μM to 500 μM. One-way ANOVA was performed to assess the differences between the groups. Differences in means between control and treatment groups were analyzed by post-hoc Dunnett's test, p<0.05. Data is reported as the mean ±SD, n =3. […] The compounds tested (JJMB5, JJMB6, JJMB7, and JJMB9) could efficiently kill several malignant cell-lines in concentration range of micromolars. (See Table 1). […] From these tests it is clear that the compounds affected several cells lines of the three major types of cancers: breast, lung, and colon. […]
Combination studies of bisamidoximes and cisplatin were performed on human breast cancer cell line MCF-7, human colon cancer cell line HCT-116, and murine mammary malignant cell lines measured by MTS assay. […] Growth Inhibition (GI50) was measured. *—Indicates a significant difference when the drugs were used in combination with cisplatin compared to when the drugs were used individually as determined by one-way ANOVA, p≤0.05.

[2] = test system: murine mammary carcinoma cells 4T1; test: Growth inhibition of murine mammary cancer cell line 4T1; format: cell-based; conditions: MTS assay, 48 hours, individually or in combination; read-out: Growth Inhibition (GI50), 4T1, bisamidoxime combination study

Cc1ccc(/C(=N/O)NCCCN/C(=N\O)c2ccc(C)cc2)cc1 [JJMB5]
GI50 [1]: 20.4 µM and 22.4 µM
GI50 [2]: 7.8 µM and 8.2 µM

Cc1ccc(/C(=N/O)NCCN/C(=N\O)c2ccc(C)cc2)cc1 [JJMB7]
GI50 [1]: 15.5 µM and 25.2 µM
GI50 [2]: 7.1 µM and 8 µM

Cc1ccc(/C(=N/O)NCCCN(C)CCCN/C(=N\O)c2ccc(C)cc2)cc1 [JJMB9]
GI50 [1]: 20.9 µM and 22.4 µM
GI50 [2]: 26.1 µM and 30.2 µM
